The values below come from article doi:10.1101/355263.

Sequences of proteins named here, by UniProt entry; tags and fusion partners are left off.
UniProt Q8IZH2: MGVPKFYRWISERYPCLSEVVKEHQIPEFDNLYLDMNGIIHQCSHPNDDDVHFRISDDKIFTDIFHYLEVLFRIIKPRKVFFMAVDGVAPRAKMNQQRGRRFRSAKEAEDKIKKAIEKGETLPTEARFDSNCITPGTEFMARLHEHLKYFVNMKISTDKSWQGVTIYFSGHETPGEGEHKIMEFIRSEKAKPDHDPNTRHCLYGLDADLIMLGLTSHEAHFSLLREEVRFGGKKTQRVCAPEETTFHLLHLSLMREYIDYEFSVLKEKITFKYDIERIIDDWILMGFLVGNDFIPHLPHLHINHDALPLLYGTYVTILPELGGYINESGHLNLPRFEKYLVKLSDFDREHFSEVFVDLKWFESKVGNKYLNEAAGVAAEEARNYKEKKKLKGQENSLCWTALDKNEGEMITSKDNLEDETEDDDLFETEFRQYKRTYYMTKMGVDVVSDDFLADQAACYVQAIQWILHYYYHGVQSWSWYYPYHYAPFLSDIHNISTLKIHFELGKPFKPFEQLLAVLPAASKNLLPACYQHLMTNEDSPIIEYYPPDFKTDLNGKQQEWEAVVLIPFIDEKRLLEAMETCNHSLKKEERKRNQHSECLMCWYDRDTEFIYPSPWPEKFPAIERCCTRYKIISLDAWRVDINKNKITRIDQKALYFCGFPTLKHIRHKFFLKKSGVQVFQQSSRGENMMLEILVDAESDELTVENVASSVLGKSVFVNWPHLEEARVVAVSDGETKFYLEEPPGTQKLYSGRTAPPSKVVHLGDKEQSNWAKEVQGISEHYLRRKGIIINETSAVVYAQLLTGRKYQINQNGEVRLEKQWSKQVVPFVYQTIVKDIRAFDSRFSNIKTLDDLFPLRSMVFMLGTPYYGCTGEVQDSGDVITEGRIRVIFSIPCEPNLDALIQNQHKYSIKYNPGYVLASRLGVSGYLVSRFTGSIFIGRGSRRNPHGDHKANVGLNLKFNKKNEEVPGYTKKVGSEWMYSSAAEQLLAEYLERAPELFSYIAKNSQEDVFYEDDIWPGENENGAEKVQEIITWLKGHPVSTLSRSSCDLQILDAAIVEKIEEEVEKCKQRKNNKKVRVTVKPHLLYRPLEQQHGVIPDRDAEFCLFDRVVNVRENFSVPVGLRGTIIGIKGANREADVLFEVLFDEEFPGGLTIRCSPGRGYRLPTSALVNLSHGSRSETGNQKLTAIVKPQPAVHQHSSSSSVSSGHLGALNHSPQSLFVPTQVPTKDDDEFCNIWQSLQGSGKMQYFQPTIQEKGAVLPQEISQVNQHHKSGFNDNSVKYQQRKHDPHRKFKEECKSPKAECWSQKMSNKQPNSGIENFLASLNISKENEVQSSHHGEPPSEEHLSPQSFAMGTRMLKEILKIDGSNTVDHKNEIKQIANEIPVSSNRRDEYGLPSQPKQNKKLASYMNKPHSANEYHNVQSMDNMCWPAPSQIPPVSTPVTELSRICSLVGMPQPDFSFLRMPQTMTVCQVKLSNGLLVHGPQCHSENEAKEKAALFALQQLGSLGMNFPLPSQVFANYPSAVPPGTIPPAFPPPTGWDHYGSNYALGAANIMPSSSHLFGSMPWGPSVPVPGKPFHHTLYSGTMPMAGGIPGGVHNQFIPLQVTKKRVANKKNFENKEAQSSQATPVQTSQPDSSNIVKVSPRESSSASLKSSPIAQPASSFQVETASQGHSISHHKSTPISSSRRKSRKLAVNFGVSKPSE

Results are given in words; binding and its absence hold for the method and conditions named. Binding seen in cells or lysates may run through a third protein. Some binding calls cover weakened binding; strength is not graded here. Tags and fused reporters may be left off the sequences shown.

In assay [1] the target is T1, Flag-tagged IFIT5 (interferon-induced tetratricopeptide repeat 5) (UniProt Q13325).
T1 sequence: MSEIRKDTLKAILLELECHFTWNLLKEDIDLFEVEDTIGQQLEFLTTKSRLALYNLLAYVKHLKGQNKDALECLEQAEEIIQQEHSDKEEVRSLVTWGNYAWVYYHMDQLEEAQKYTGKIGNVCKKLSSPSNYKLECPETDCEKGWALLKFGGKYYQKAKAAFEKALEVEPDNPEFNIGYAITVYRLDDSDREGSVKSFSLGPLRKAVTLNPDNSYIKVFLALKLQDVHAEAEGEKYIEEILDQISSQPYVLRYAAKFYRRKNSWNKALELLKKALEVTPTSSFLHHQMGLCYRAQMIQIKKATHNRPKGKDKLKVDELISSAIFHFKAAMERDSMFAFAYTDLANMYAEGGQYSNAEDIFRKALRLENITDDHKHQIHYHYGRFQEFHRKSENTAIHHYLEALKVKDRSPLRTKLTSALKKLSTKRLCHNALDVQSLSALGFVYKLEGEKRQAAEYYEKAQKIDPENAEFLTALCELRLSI
Kind of assay: co-IP.

The target in assay [2] is XRN1 (human (endogenous in LAPC4)) (UniProt Q8IZH2). Briefly: co-IP.

Take “XRN1 (from UniProt Q8IZH2 1-1706) (enzyme)”: the binding entry in assay [1] was “binds”.

B1: Flag-tagged IFIT5 (interferon-induced tetratricopeptide repeat 5) (protein, UniProt Q13325 1-482)
chain: MSEIRKDTLKAILLELECHFTWNLLKEDIDLFEVEDTIGQQLEFLTTKSRLALYNLLAYVKHLKGQNKDALECLEQAEEIIQQEHSDKEEVRSLVTWGNYAWVYYHMDQLEEAQKYTGKIGNVCKKLSSPSNYKLECPETDCEKGWALLKFGGKYYQKAKAAFEKALEVEPDNPEFNIGYAITVYRLDDSDREGSVKSFSLGPLRKAVTLNPDNSYIKVFLALKLQDVHAEAEGEKYIEEILDQISSQPYVLRYAAKFYRRKNSWNKALELLKKALEVTPTSSFLHHQMGLCYRAQMIQIKKATHNRPKGKDKLKVDELISSAIFHFKAAMERDSMFAFAYTDLANMYAEGGQYSNAEDIFRKALRLENITDDHKHQIHYHYGRFQEFHRKSENTAIHHYLEALKVKDRSPLRTKLTSALKKLSTKRLCHNALDVQSLSALGFVYKLEGEKRQAAEYYEKAQKIDPENAEFLTALCELRLSI
Turning to B1, in assay [2], the binding result is on record as “binds”.
